# Some of the results follow. Shown are side measurements of this screen, not its main read-out; they come without a call. Most of these compounds were active or inconclusive in the main read-out, so they are no random draw. Words in brackets tell the shape of the fitted curve; partial curves, single points and poor fits give uncertain potencies.
# Assay: qHTS Assay to Find Inhibitors of Chronic Active B-Cell Receptor Signaling
# Details: ABC-DLBCL IkBa-CBG/CBR reporter, luminescence ratio (green luciferase fused to IkBa over red control in TMD8 lymphoma cells), 4 h
# Outline: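 TMD8 human ABC-DLBCL cells with doxycycline-inducible IκBα–green luciferase fusion and unfused red luciferase, in 0.5% FBS medium; compounds up to 46 uM, 4 h at 37C. Green/red luminescence ratio, filter-overlap corrected, fitted to concentration-response curves.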
# [1] = measured here: CBR red luminescence, cell number
# [2] = measured here: IkBa-CBG green luminescence
Compound,AC50 [1],AC50 [2]
O=C(N/N=C/c1ccco1)c1cc(-c2ccc3ccccc3c2)n[nH]1,"32.6 µM [falling, single point]","7.31 µM [rising, partial curve, poor fit]"
O=C(NCc1cccnc1)c1c[nH]c2cc3c(cc2c1=O)OCCO3,"10 µM [falling, partial curve, poor fit]",–
O=C(CSc1nc2ccccc2c(=O)[nH]1)Nc1ccc(C(=O)O)cc1,"1.58 µM [falling, full curve]",–
COc1cccc(NC(=O)CSC2=Nc3ccccc3C3=NC(CC(=O)NCc4ccccc4OC)C(=O)N23)c1 (configuration not stated),"12.6 µM [falling, single point]",–
O=c1oc2ccc(Cl)cc2cc1-c1cn2c(n1)sc1ccccc12,"35.5 µM [falling, single point]",–
CCOC(=O)N1CCN(S(=O)(=O)N2CCCC(C(=O)NCc3ccc(OC)cc3OC)C2)CC1 (configuration not stated),"6.31 µM [rising, partial curve]",–
CC(C)(C)C1C/C(=C/c2ccco2)C(=O)/C(=C/c2ccco2)C1 (configuration not stated),"6.51 µM [falling, partial curve]",–
CN(C)C(=S)Nc1nc2ccccc2s1,"2.24 µM [falling, full curve, poor fit]",–
O=C(Cn1nc(Cc2cccnc2)c2ccccc2c1=O)NCC1COc2ccccc2O1 (configuration not stated),"0.092 µM [falling, full curve, poor fit]",–
O=C(/C=C\Nc1ccc(Br)cc1)c1cccnc1,"16.4 µM [falling, single point]",–
CCC(C)N(C(=O)CN1C(=O)NC2(CCc3ccccc32)C1=O)C1CCS(=O)(=O)C1 (configuration not stated),"6.51 µM [falling, single point]","4.11 µM [rising, partial curve, poor fit]"
CC/C(=C/c1ccccc1)c1cccc2[nH]c3c(OC)cccc3c12,"35.5 µM [rising, single point]",–
CCc1cccc2c(C(=O)CN3C(=O)NC4(CCc5ccccc54)C3=O)c[nH]c12 (configuration not stated),"0.164 µM [falling, full curve, poor fit]",–
COc1ccc(NC(=O)C2CCC(CNc3c(N4CCOCC4)c(=O)c3=O)CC2)cc1Cl (configuration not stated),"8.91 µM [rising, partial curve]",–
c1ccc(CN2CCC3(CC2)Nc2ccccc2CO3)cc1,"14.6 µM [falling, single point]",–
O=C(NCC1CCCCN1)c1cc(OCC(F)(F)F)ccc1OCC(F)(F)F (configuration not stated),"20.6 µM [rising, partial curve, poor fit]",–
Cc1cccc([C@@H]2[C@@H]3C(=O)N(Cc4ccccc4)C(=O)[C@@H]3[C@]3(C)C(=O)N(c4cccc(Cl)c4)C(=O)N23)c1,"10 µM [falling, partial curve, poor fit]",–
CNc1ccccc1C(=O)OC(C)C(=O)Nc1ccc(S(=O)(=O)N2CCCC2)cc1 (configuration not stated),"35.5 µM [falling, single point]",–
CC(C)c1c(O)nc(SCCN(C)C)[nH]c1=O,"35.5 µM [falling, single point]",–
O=C(c1cc(-c2cccc(O)c2)on1)N1CCCCCC1,"0.708 µM [rising, full curve, poor fit]",–
Nc1c(S(=O)(=O)c2cc(Cl)ccc2Cl)c2nc3ccccc3nc2n1CCN1CCOCC1,"4.11 µM [falling, partial curve, poor fit]",–

# Full records, looked up by structure. Values in the order: AC50 [1]	AC50 [2]
# Cc1cccc([C@@H]2[C@@H]3C(=O)N(Cc4ccccc4)C(=O)[C@@H]3[C@]3(C)C(=O)N(c4cccc(Cl)c4)C(=O)N23)c1 in the list: 10 µM [falling, partial curve, poor fit]	–
# CCOC(=O)N1CCN(S(=O)(=O)N2CCCC(C(=O)NCc3ccc(OC)cc3OC)C2)CC1 (configuration not stated) in the list: 6.31 µM [rising, partial curve]	–

# The list goes on:

Compound,AC50 [1],AC50 [2]
O=C(Nc1nc2ccccc2s1)c1ccc(Cl)s1,"2.31 µM [falling, full curve]",–
COc1ccc2nc(NC(=O)C3COc4ccccc4O3)sc2c1 (configuration not stated),"35.5 µM [falling, partial curve, poor fit]",–
Cc1cc(=O)oc2cc(Oc3ncccn3)ccc12,"6.51 µM [rising, single point]",–
CC(C)Cn1c(C(C)C)nc([N+](=O)[O-])c1S(=O)(=O)c1ccc(F)cc1,"1.41 µM [falling, full curve, poor fit]",–
Cc1cc(NC(=O)COC(=O)c2c(C)nn(-c3ccccc3)c2C)no1,"3.98 µM [rising, single point]",–
Cn1ccnc1SCC(=O)Nc1cccc2ccccc12,"5.62 µM [rising, single point]",–
CCN1C(=O)[C@@H]2Cc3c([nH]c4ccccc34)C(c3ccc(OC)cc3)N2C1=S (some centres not stated),"35.5 µM [falling, single point]",–
O=C(CSc1ncn(-c2ccccc2)n1)c1cccs1,"8.91 µM [falling, partial curve]",–
Fc1cccc(/C=N/NC(=S)Nc2ccccc2Cl)c1,"3.66 µM [rising, full curve, poor fit]",–
O=[N+]([O-])c1cc(S(=O)(=O)N2CCCC2)ccc1SCCO,"14.1 µM [rising, single point]",–
Cc1ccc(SCC(=O)c2c(C)nc3ccccn23)cc1,"35.5 µM [falling, single point]",–
Cc1ccc(-c2csc3ncnc(N4CCN(C(=O)c5ccccc5)CC4)c23)cc1,"25.9 µM [falling, single point]",–
Cc1ccc(C(=O)Nc2ccc(CC(=O)O)cc2)o1,"0.259 µM [rising, full curve, poor fit]",–
N#Cc1c(Cl)c(Cl)c2nnc(-c3ccc(Br)cc3)n2c1Cl,"12.6 µM [falling, partial curve]",–
CC1=C(C(=O)Nc2cc(C(=O)NCCC(C)C)ccc2C)SCCO1,"35.5 µM [rising, partial curve, poor fit]",–
CCN1C(=O)/C(=C/N(C)c2ccccc2)OC1=S,"18.4 µM [falling, single point]",–
Cc1nc(NC(=O)c2ccc(Br)o2)ccc1Br,"2.51 µM [rising, partial curve, poor fit]",–
O=c1cc(-c2ccc(Cl)cc2)[nH][nH]1,–,"23.1 µM [falling, single point]"
CC(CNC(=O)COC(=O)c1cccs1)c1ccccc1 (configuration not stated),"3.66 µM [rising, single point]",–
Cc1ccc(SC(CC(=O)c2ccc(F)cc2)C(=O)O)cc1 (configuration not stated),"17.8 µM [falling, single point]",–
CC1CCCCC1NC(=O)c1cc2c(s1)CS(=O)(=O)C2 (configuration not stated),"2.31 µM [falling, partial curve, poor fit]",–

Compound,AC50 [1],AC50 [2]
COC(=O)Cc1csc(Nc2ccccc2)n1,"4.61 µM [rising, partial curve, poor fit]",–
c1ccc2c(c1)nc(Nc1ccc(N3CCCCC3)cc1)c1nncn12,"12.6 µM [rising, partial curve, poor fit]","14.1 µM [falling, partial curve, poor fit]"
COc1cccc(NC(=O)CSc2nnc(-c3cc(-c4ccccn4)nc4ccccc34)o2)c1,"29.1 µM [falling, single point]",–
Cn1nnc2cc(C(=O)Nc3ccc4ccccc4c3)ccc21,"0.0891 µM [rising, full curve, poor fit]",–
COc1ccc(Nc2nc(C)cc(C)c2C(N)=O)cc1OC,"35.5 µM [rising, partial curve, poor fit]",–
COc1ccc(Cl)cc1NC(=O)CSc1nc(=O)[nH]c2c1CCC2,"0.398 µM [falling, full curve, poor fit]",–
Cc1nc2ncnn2c(C)c1CCC(=O)NC(C)c1ccc2c(c1)OCCO2 (configuration not stated),"10 µM [falling, partial curve]",–
CCC(=O)c1ccccc1OCCN1CCN(CC)CC1,"0.1 µM [rising, full curve, poor fit]",–
O=C(NNC(=O)c1ccc(F)cc1F)c1ccc2c(c1)OCO2,"11.2 µM [falling, partial curve]",–
CCOC(=O)c1ccccc1NS(=O)(=O)c1ccc(OCC)cc1,"4.61 µM [rising, full curve, poor fit]","7.31 µM [falling, partial curve]"
Cc1cc(C)n2ncc(C(=O)NC3CCCCC3)c2n1,"0.126 µM [rising, full curve, poor fit]",–
CC(C)OC(=O)c1cc(C(=O)c2cc(Br)ccc2O)coc1=N,"17.8 µM [falling, single point]",–
Cc1cc(/C=C(\C#N)C(=O)Nc2ccc(F)cc2)c(C)n1-c1ccc(N2CCOCC2)c([N+](=O)[O-])c1,"0.103 µM [rising, full curve, poor fit]",–
O=C(NCc1ccco1)C1CCC(N2C(=O)C3C4CCC(C4)C3C2=O)CC1 (configuration not stated),"15.8 µM [rising, partial curve, poor fit]",–
COc1ccc2nc(NC(=O)c3ccco3)sc2c1,"2.82 µM [falling, full curve, poor fit]",–
CCN(CC)S(=O)(=O)c1ccc(NC(=O)CSc2cccc[n+]2[O-])cc1,"0.411 µM [rising, full curve, poor fit]",–
COc1ccc(C)cc1S(=O)(=O)Nc1ccccc1,"29.1 µM [rising, single point]",–
O=C(Nc1ccc(Cl)cc1F)c1cc(S(=O)(=O)NC2CCCCCC2)ccc1F,"7.94 µM [falling, single point]",–
COc1cccc(NC(=O)CSc2ncnc3c2cnn3Cc2ccccc2)c1,"6.51 µM [falling, single point]",–
FC(F)c1nc2ccccc2[nH]1,"3.98 µM [falling, full curve, poor fit]",–
COC(=O)Nc1ccc(S(=O)(=O)N2CCCC(C(=O)N3CC(C)OC(C)C3)C2)cc1 (configuration not stated),"17.8 µM [rising, partial curve, poor fit]",–
